According to US12589114B2 (The Board of Trustees of the Leland Stanford Junior …, priority 2019, dated 2026):
Some results were stated once for a whole list of compounds, not compound by compound. Some compounds share one range, which may span the group rather than tell each member.

Legend:
human CD34+ cells [1] = experiment: Flow cytometry of HSPC populations after 7-day differentiation of human CD34+ cells treated with agonists or antagonists of GABRR1; type: cell-based; details: 7-day differentiated human CD34+ cells, relative to non-treated cells
Experimental: (§1) We treated human CD34+ cells with different agonists and antagonists of GABRR1.
Cell Isolation and Culture. Human bone marrow mononuclear cells were purchased from AllCells and cultured in StemSpan™ Serum-Free Expansion Medium II (SFEM II, StemCell Technologies), supplemented with 20 ng/ml hSCF (PeproTech), hTPO, hIL-3, hIL-6 and Flt3 (R&D Systems). Mouse bone marrow mononuclear cells were isolated from mice and cultured in StemSpan™ SFEMI (StemCell Technologies), supplemented with mTPO and mSCF (PeproTech). […] Medium was changed every other day.
Human bone marrow or cord blood cells were stained in a similar way using Rat IgG for blocking and PI for viability. Human cells were stained with the antibodies cocktails as follows: CD34, CD38, CD45RA, CD123, CD71, CD105, CD41 and the lineage markers CD2, CD4, CD8, CD11b/Mac-1, CD14, CD19, CD20, CD56 and CD235a. The GABRR1 antibodies were also used for staining (Bloss Antibodies).
Surface marker cocktail of human hematopoietic stem and progenitor populations: • HSCs/MPPs: Lin-CD34+CD38− • MkP: Lin-CD34+CD38+CD123−CD45RA−CD41+ • CMP: Lin-CD34+CD38+CD123lowCD45RA− • MEP: Lin-CD34+CD38+CD123−CD45RA− • GMP: Lin-CD34+CD38+CD123+CD45RA+ • EP: Lin-CD34+CD38+CD123−CD45RA−CD71+CD150+.

human CD34+ cells [2] = experiment: CFU-MK colony-forming assay from CD34+ bone marrow cells; type: cell-based
Experimental: as §1
Colony-Forming Unit Assay. Colony forming assay was performed using the MegaCult™-C Complete Kit with Cytokines (Stemcell Tech, 04971)) following manufacturer's instruction, Colonies were counted after 12-14 days of culture and megakaryopoietic colonies were stained using antibody provided in the kit.

Row | SMILES | Change of CD34+CD41+ population (MkP) (human CD34+ cells [1]) | Change of CD34+CD71+ population (EP) (human CD34+ cells [1]) | Increase in megakaryocyte colonies (human CD34+ cells [2])
1 | NCCCC(=O)O [GABA, 4-aminobutanoic acid] | 2-4 fold | 2-4 fold | 1-3 fold
2 | NCc1cc(=O)[nH]o1 [Muscimol, muscimol] | 2-4 fold | 2-4 fold | 1-3 fold
3 | NC/C=C/C(=O)O [TACA, trans-4-aminocrotonic acid] | 2-4 fold | 2-4 fold | 1-3 fold
